Results are given in words; binding and its absence hold for the method and conditions named. In cells and extracts the contact can be indirect. These calls come from enrichment with a bait or labelling near it, and not all partners need be listed. For some assays here: A no says only that the protein was not detected with the bait.
Experiments:
Assay in all cases: affinity purification with mass spectrometry; endogenous immunoprecipitation (antibodies to PCGF1, BCOR, DPPA4, NANOG or OCT4) from nuclear lysate of undifferentiated NT2 cells, trypsin digest on beads, label-free mass spectrometry (Q Exactive), volcano plot against IgG beads
[1] = biological target: NANOG (human (endogenous in NT2)) (UniProt Q9H9S0)
[2] = biological target: PCGF1 (human (endogenous in NT2)) (UniProt Q9BSM1)
[3] = biological target: OCT4 (human (endogenous in NT2)) (UniProt Q01860)
[4] = biological target: BCOR (human (endogenous in NT2)) (UniProt Q6W2J9)
[5] = biological target: T1, DPPA4 (human (endogenous in NT2)) (UniProt Q7L190)
T1 sequence: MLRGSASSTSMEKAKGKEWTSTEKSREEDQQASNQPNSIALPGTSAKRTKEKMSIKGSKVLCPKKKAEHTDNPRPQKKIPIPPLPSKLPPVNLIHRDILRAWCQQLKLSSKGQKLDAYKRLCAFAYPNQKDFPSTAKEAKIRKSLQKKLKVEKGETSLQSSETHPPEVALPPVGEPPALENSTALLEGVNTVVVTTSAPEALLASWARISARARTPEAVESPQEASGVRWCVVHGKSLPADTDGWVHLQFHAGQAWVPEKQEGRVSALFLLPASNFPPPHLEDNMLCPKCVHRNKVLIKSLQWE

Chains of the proteins cited; added tags and fusions are not shown.
UniProt Q9H9S0: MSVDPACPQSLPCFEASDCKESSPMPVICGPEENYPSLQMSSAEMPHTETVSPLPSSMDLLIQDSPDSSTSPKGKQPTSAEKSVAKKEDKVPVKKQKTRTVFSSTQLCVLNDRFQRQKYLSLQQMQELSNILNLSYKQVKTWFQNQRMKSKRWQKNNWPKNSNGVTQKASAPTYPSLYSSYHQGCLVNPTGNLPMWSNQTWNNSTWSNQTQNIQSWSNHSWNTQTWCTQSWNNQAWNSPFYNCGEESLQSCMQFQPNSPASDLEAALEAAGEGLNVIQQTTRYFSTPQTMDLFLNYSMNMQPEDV
UniProt Q9BSM1: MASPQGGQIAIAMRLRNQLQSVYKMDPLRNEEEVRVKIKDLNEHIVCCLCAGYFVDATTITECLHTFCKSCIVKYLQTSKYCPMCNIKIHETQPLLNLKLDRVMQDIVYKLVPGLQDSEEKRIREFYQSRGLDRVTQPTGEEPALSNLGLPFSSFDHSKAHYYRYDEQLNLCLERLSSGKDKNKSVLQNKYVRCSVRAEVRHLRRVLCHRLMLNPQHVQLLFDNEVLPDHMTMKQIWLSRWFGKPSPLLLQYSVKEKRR
UniProt Q01860: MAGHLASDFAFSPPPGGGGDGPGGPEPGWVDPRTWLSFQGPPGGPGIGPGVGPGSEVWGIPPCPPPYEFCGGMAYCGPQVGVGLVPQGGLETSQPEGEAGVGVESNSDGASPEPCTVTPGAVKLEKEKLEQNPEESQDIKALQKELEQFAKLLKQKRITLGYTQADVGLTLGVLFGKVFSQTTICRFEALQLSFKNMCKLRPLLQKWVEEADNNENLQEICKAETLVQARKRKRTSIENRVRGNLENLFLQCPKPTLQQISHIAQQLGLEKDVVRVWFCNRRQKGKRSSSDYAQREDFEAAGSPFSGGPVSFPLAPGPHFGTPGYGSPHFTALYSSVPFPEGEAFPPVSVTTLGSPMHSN
UniProt Q6W2J9: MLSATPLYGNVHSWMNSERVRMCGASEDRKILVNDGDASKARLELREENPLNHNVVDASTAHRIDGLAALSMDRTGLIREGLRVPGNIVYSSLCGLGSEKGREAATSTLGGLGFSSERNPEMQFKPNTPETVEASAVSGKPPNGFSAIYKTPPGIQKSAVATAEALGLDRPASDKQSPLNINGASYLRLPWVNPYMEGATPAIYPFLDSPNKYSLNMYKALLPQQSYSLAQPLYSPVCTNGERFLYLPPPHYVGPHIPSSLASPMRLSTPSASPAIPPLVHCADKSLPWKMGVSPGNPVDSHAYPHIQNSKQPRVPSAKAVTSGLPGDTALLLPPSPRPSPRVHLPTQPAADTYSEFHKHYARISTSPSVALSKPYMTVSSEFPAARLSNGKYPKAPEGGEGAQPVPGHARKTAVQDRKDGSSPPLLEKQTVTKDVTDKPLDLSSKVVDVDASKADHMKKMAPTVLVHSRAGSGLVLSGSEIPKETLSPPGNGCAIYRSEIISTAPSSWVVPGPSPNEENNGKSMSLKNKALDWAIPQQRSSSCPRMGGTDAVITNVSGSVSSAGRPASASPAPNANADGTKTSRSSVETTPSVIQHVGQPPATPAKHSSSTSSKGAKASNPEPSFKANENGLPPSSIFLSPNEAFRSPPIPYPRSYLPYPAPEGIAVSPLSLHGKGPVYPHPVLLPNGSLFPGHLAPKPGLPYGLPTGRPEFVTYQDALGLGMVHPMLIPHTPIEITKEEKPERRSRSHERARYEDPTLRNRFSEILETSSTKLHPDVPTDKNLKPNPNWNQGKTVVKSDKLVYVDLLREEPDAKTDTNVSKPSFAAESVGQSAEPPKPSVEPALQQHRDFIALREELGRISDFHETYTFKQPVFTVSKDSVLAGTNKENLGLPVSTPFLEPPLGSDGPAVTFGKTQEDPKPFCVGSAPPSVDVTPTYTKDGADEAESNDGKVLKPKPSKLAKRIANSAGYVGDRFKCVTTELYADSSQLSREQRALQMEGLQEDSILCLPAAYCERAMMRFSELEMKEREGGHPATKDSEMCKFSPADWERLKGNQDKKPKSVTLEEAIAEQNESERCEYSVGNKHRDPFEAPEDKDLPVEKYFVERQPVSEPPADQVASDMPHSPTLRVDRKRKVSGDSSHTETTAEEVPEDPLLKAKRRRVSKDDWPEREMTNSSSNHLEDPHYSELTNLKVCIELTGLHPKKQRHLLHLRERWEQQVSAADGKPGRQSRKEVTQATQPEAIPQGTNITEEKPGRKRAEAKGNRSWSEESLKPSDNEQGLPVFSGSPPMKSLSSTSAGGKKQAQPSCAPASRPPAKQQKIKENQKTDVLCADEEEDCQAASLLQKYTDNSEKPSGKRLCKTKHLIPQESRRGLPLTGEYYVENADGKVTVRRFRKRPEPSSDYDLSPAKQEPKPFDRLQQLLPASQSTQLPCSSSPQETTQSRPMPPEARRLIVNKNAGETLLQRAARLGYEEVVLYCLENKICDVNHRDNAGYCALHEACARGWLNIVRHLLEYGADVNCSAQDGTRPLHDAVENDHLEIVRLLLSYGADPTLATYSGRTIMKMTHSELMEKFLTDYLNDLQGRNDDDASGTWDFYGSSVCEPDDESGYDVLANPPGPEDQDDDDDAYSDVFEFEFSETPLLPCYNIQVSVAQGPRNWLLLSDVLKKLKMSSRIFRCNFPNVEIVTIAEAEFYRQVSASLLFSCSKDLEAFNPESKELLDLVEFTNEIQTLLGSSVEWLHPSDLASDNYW
UniProt P68400: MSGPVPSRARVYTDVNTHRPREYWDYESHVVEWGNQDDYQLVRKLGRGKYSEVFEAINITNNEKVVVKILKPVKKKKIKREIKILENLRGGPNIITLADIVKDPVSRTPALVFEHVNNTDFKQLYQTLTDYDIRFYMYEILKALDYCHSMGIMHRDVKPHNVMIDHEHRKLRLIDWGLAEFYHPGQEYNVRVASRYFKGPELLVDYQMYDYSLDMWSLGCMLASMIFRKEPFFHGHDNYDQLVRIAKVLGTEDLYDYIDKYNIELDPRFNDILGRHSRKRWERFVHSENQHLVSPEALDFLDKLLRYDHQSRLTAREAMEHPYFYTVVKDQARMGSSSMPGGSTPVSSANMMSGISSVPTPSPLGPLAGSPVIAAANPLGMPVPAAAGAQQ
UniProt Q969R5: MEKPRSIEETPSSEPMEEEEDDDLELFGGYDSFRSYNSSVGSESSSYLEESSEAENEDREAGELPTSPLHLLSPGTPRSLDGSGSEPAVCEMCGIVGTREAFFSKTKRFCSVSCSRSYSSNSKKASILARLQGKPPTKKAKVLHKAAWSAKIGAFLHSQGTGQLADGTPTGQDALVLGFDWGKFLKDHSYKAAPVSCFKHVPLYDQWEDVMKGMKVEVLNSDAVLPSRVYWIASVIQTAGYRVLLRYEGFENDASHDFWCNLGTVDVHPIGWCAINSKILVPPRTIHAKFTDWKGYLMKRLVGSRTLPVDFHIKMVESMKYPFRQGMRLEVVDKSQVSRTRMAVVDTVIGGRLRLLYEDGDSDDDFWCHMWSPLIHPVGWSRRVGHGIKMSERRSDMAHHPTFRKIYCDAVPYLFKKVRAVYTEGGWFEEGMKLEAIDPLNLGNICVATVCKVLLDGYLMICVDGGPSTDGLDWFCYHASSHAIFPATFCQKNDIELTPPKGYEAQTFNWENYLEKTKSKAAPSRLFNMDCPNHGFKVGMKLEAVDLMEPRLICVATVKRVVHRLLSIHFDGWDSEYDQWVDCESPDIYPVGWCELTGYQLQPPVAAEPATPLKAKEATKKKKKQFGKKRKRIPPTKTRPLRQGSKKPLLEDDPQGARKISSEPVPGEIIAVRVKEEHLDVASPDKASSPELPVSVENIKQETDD
UniProt P63208: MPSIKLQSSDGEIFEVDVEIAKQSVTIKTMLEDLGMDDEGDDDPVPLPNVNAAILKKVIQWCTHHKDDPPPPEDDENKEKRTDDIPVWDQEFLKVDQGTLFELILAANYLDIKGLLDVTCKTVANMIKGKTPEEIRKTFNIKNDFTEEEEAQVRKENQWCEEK
UniProt Q16531: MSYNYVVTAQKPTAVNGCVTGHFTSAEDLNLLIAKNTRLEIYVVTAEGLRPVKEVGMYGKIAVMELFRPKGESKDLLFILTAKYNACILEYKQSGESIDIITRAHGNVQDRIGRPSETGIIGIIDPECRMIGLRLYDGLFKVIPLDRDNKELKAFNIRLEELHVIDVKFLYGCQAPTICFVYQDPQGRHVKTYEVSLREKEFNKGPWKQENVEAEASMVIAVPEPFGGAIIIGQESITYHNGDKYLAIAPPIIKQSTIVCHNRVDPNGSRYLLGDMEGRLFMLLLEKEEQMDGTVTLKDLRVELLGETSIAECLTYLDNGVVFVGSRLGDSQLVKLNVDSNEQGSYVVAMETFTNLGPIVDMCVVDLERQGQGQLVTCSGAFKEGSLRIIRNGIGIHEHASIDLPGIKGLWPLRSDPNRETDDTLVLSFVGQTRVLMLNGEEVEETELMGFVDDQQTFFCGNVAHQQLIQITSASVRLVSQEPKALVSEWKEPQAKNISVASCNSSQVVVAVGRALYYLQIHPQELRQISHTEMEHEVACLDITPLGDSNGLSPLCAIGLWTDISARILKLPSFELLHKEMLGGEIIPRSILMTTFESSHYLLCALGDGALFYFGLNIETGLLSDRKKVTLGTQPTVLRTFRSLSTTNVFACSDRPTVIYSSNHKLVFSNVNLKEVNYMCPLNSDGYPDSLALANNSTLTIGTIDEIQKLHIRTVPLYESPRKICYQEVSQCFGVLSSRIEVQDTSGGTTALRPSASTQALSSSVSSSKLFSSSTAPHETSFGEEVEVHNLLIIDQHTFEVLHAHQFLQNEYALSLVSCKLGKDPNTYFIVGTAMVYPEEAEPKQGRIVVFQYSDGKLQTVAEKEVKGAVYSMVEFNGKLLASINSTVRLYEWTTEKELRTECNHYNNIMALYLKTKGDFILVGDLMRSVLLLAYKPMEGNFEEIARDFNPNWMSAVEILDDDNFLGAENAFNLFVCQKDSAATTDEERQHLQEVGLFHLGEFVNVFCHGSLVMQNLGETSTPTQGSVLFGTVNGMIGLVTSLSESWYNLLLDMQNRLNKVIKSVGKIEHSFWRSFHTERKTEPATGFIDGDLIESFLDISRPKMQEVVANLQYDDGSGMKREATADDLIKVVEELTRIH
UniProt Q93009: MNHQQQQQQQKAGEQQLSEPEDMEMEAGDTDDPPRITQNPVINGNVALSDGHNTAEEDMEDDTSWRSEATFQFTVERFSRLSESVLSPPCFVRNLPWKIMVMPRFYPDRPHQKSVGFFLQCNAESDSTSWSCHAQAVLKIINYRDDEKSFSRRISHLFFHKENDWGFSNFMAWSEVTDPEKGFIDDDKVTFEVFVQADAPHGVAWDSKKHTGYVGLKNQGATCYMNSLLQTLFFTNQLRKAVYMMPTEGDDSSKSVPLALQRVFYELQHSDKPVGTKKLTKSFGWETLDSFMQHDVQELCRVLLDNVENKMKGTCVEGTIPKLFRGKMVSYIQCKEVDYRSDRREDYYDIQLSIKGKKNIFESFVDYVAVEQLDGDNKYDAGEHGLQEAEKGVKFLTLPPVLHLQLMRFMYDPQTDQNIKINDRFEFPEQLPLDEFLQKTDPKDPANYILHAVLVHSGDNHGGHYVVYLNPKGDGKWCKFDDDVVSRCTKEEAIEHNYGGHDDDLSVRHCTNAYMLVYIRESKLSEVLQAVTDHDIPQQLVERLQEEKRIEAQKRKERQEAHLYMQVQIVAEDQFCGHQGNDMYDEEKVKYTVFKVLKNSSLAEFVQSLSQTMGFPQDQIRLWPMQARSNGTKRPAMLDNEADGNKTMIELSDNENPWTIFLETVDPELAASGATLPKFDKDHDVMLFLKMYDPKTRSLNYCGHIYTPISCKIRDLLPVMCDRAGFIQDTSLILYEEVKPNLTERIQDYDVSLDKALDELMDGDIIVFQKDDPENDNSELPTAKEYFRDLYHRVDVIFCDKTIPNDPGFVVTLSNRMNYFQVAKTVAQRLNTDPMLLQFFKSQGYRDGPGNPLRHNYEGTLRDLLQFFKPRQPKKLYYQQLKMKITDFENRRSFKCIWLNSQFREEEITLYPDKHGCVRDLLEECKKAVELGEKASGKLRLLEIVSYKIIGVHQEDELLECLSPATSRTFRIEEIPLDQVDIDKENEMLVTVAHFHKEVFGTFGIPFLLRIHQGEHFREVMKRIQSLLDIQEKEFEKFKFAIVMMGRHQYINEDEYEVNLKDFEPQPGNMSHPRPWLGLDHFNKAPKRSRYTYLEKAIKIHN
UniProt Q99496: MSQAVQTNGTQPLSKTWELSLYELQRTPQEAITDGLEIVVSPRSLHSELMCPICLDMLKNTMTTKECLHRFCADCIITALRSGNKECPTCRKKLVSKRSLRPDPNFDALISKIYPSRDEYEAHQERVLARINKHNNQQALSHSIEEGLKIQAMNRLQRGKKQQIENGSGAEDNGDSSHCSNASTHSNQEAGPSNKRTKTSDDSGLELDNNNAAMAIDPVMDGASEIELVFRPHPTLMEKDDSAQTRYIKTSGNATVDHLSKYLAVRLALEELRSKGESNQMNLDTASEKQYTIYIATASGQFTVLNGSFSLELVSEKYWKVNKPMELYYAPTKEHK

binding [1]	binding [2]	binding [3]	binding [4]	binding [5]	Substance
binds	–	–	–	–	CSNK2A1 (from UniProt P68400 1-391)
–	no binding	–	–	–	L3MBTL2 (from UniProt Q969R5 1-705)
–	binds	no binding	binds	no binding	SKP1 (from UniProt P63208 1-163)
–	binds	–	–	–	DDB1 (from UniProt Q16531 1-1140)
binds	binds	no binding	binds	no binding	USP7 (from UniProt Q93009 1-1102)
–	binds	–	–	–	NANOG (from UniProt Q9H9S0 1-305)
binds	–	–	binds	binds	PCGF1 (from UniProt Q9BSM1 1-259)
–	–	–	binds	no binding	RNF2 (from UniProt Q99496 1-336)
–	binds	no binding	–	no binding	BCOR (from UniProt Q6W2J9 1-1755)
binds	–	–	–	–	PCGF4 (BMI1) (from UniProt P35226 1-326)
–	binds	–	–	–	SMARCC2 (from UniProt Q8TAQ2 1-1214)

From PMC4685312
